This is an account of results in PubChem BioAssay AID2685 (National Center for Advancing Translational Sciences (NCATS), 2010).

The nature of the test: qHTS Assay for Lipid Storage Modulators in Drosophila S3 Cells.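 As to cell number change: cells counted by Cell Tracker Red CMTPX staining in the red channel.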 To be noted: BODIPY lipid droplet fluorescence, 18-24 h; for cell number change: measured here: cell count max response, cells fed with added oleic acid. The method, boiled down: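 Laser-scanning cytometry quantifies lipid droplet accumulation (500–530 nm total intensity; droplet/cell object ratio) in oleic acid-fed (400 uM added) Drosophila S3 cells treated with a concentration series. 20 uM Triacsin C defined 100% inhibition.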
For orientation: Quantitative high-throughput screening tests each substance at several concentrations.

[1] abbreviates: measured here: lipid fluorescence (Fed channel) AC50, cells fed with added oleic acid.
The mark [2] stands for this setting: measured here: cell number channel AC50, cells fed with added oleic acid.

The other results are listed elsewhere or left out. These are further read-outs of the screen, such as a control signal, another cell line or another target. No call is given for them. Compounds called inactive in the main read-out are mostly missing here. Potencies come from curve fits of mixed quality, noted in brackets.

Broadly, the AC50 is the concentration at which the activity in the assay is half-maximal. Regarding `Cc1ccc(NS(=O)(=O)c2ccc3c(c2)CC(=O)N3)cc1F`, the cell number change stood at 11.3%. Also, the AC50 under setting [1] is 29.1 µM [rising, single point].
Turning to `Cc1nnc2c(NC3CCCCC3)nc3ccccc3n12`, under setting [1], the AC50 is 0.651 µM [falling, full curve, poor fit].
For `CCN(CC)S(=O)(=O)c1ccc(C(=O)Nc2c3c(nn2C(C)(C)C)CS(=O)(=O)C3)cc1`, the AC50 under setting [1] is 0.146 µM [falling, full curve, poor fit].
For `Cc1nnc(SCC(=O)NCc2cccs2)n1-c1ccccc1`, the AC50 is 2.91 µM [rising, single point] under setting [2] and 6.51 µM [rising, single point] under setting [1].
For `COc1cccc(C(=O)NCCCN2CCN(CCCNC(=O)c3cccc(OC)c3)CC2)c1`, the AC50 under setting [2] is 0.82 µM [rising, full curve].
Regarding `c1c2c(cc3sc(N4CCOCC4)nc13)OCCO2`, the AC50 under setting [1] is 6.51 µM [falling, partial curve].
Take `CCC(CC)c1nnc(NC(=O)CC(C)c2ccccc2)s1` (stereo not drawn): the cell number change was 2.11%.
`COc1ccc(-c2csc(NC(=O)Nc3ccccc3)n2)cc1`: the cell number change was 1.81%. Also, the AC50 under setting [1] was 0.092 µM [rising, full curve, poor fit].
Regarding `CCOCCCN1CC(C(=O)NCCc2ccc(C)cc2)CC1=O` (stereo not drawn), the cell number change is -19.8%.
With `CC(C)c1ccc(NC(=S)Nc2cccc3ccccc23)cc1`, the cell number change was -15.3%. Further, the AC50 under setting [2] is 0.366 µM [rising, single point].
On to `O=C(COC(=O)CN=C1NS(=O)(=O)c2ccccc21)Nc1ccccc1OC(F)F`, for which the cell number change was determined as 16.1%.
Regarding `COC(=O)c1cccc(Nc2ncnc3ccc(C)cc23)c1`, the cell number change was found to be 68.8%. The AC50 under setting [2] was 23.1 µM [rising, partial curve, poor fit]. In addition, the AC50 under setting [1] is 4.11 µM [rising, partial curve].
Take `O=C(O)CC(c1ccc(Cl)cc1)N1C(=O)CCC1=O` (stereo not drawn): the cell number change is -13.3%. Under setting [1], the AC50 was 0.00411 µM [falling, full curve, poor fit].
Turning to `O=S(=O)(Nc1nc2ccccc2nc1N1CCc2ccccc2C1)c1ccc(Br)cc1`, the cell number change was -10.3%. Moreover, the AC50 under setting [1] is 0.206 µM [rising, full curve].
`O=C(/C=C/NNC(=O)c1ccccc1)c1ccccc1`: the cell number change amounted to 7.56%. For the same compound, under setting [1], the AC50 was 2.31 µM [rising, partial curve].
As for `Nc1nc(C(c2ccccc2)c2ccccc2)cs1`, the cell number change is -7.89%.
With `O=C(CSc1nc(O)cc(=O)n1C1CCCC1)Nc1cccc(Cl)c1Cl`, the cell number change worked out at 22%. Under setting [1], the AC50 was 32.6 µM [rising, single point].
As for `CC(C)C(=O)Nc1sc2c(c1C(N)=O)CCN(Cc1ccccc1)C2`, the cell number change is -4.61%. Moreover, under setting [1], the AC50 was 29.1 µM [falling, single point].
`O=C(COc1cccnc1[N+](=O)[O-])Nc1ncc(Cl)cc1Cl`: the cell number change was -6.74%. For the same compound, the AC50 under setting [1] was 32.6 µM [falling, single point].
With `O=C1CC(c2ccco2)Cc2c1cnn2-c1nc2ccccc2s1` (stereo not drawn), the cell number change was found to be 12.3%. Also, the AC50 under setting [1] is 6.51 µM [rising, single point].
In the case of `O=C(CCN1CCCCC1)NNC(=O)C12CC3CC(CC(C3)C1)C2`, the AC50 under setting [1] is 4.11 µM [falling, partial curve].
Take `Oc1ccc(/C=C/c2nc(-c3ccccc3O)n(-c3ccccc3)n2)cc1`: the cell number change was -52.6%. The AC50 under setting [2] is 10.3 µM [falling, partial curve, poor fit]. The AC50 under setting [1] is 29.1 µM [falling, single point].
As to `O=C(Cc1ccc(Cl)cc1)Nc1cccc(S(=O)(=O)Nc2ccccc2F)c1`, the cell number change came to 8.03%. For the same compound, the AC50 under setting [1] was 3.66 µM [rising, partial curve, poor fit].
Regarding `CN(CC(=O)Nc1ccccc1Sc1ccccc1)Cc1nc2ccccc2c(=O)[nH]1`, the cell number change was -12.8%. Besides, the AC50 under setting [1] was 0.116 µM [falling, single point].
As to `Cc1ccc(N=Cc2c(O)cc(C)oc2=O)c(C)c1`, the cell number change was -35.4%. Further, the AC50 under setting [2] is 0.92 µM [falling, full curve]. Further, under setting [1], the AC50 was 2.59 µM [falling, full curve].
Regarding `CCOC(=O)N1CCC(NC(=O)CC2C(=O)NCCN2Cc2ccccc2)CC1` (stereo not drawn), the cell number change stood at 11%. Further, under setting [1], the AC50 was 29.1 µM [rising, single point].
In the case of `CC1=NN(C(=O)c2ccc(Cn3nc(C)c([N+](=O)[O-])c3C)cc2)C(O)(C(F)(F)F)C1` (stereo not drawn), the AC50 under setting [2] is 2.91 µM [rising, partial curve, poor fit].
In the case of `CCC1CCCCN1C(=O)COc1ccc(F)cc1` (stereo not drawn), the cell number change was -0.713%. For the same compound, the half-maximal activity concentration (AC50) under setting [1] was 0.517 µM [rising, single point].
`Cc1nc2ccccc2nc1SCC(=O)c1ccccc1`: the cell number change was -21.5%. Also, the AC50 under setting [1] is 16.4 µM [falling, single point].
Turning to `COc1ccc2cc(C(=O)NCc3ccccc3CN3CCCC3)ccc2c1`, the cell number change was -15.4%. In addition, the AC50 under setting [1] is 7.31 µM [falling, partial curve].
Regarding `C[C@H](NC(=O)N1CCn2c1nc1ccccc12)C(=O)NCc1ccccc1`, the cell number change was -5.19%. For the same compound, under setting [1], the AC50 was 29.1 µM [falling, single point].
For `O=C(c1ccc(Br)cc1)N1CCC(C(=O)N2CCN(c3ccccc3)CC2)CC1`, the cell number change was -19.1%. The AC50 under setting [1] was 8.2 µM [falling, partial curve].
Regarding `CSc1ncccc1C(=O)Nc1nc2c(C)cccc2s1`, the cell number change is -35.2%. The AC50 under setting [2] was 32.6 µM [falling, single point].
As to `O=S(=O)(NCc1ccco1)c1ccc2c(c1)Cc1ccccc1-2`, the AC50 under setting [1] was 0.58 µM [rising, single point].
Consider `CC(C)(C)C(=O)Nc1ccccc1C(=O)Nc1cccnc1`, for which the cell number change was -13.2%. The AC50 under setting [1] was 29.1 µM [falling, single point].
`Cc1occc1C(=O)NNC(=O)C1CCCC1`: the cell number change is -36.6%. In addition, the AC50 under setting [2] was 0.00461 µM [falling, full curve, poor fit].
Turning to `CCCCOc1ccc(-c2nc(=S)[nH][nH]2)cc1`, the AC50 is, setting by setting: under setting [2], 0.731 µM [falling, single point]; under setting [1], 0.731 µM [falling, single point].
On to `COc1ccc2nc(NC(=O)CSc3nnc4n3C(C)(C)Cc3ccccc3-4)sc2c1`, for which the cell number change was determined as 4.22%.
Regarding `Cc1ccc(NC(=O)CN(C)C(=O)c2ccc(OCc3cn4ccccc4n3)cc2)cc1`, the cell number change amounted to 4.8%. For the same compound, the AC50 under setting [1] is 29.1 µM [rising, single point].
Consider `CN(Cc1ccccn1)C(=O)CC1C(=O)NCCN1Cc1ccc(F)cc1Cl` (stereo not drawn), for which the cell number change was found to be 95.7%. Also, the AC50 under setting [2] is 18.4 µM [rising, partial curve].
For the compound `CC(=O)NCCc1ccc(-c2csc(NC(=O)C3CC(=O)N(C4CCCC4)C3)n2)cc1` (stereo not drawn), the cell number change was found to be 73.9%. Besides, under setting [2], the concentration at half-maximal activity (AC50) was 13 µM [rising, partial curve].
Consider `CC(=O)N/C(=C/c1ccc([N+](=O)[O-])cc1)C(=O)O`, for which the cell number change is -22.1%.
For `OC(C#CCN1CCCCC1)c1ccccc1` (stereo not drawn), the cell number change was -2.42%. For the same compound, the AC50 under setting [1] was 1.84 µM [falling, full curve, poor fit].
As for `CN(CCc1ccccc1)C1CCCN(S(=O)(=O)CC(F)(F)F)C1` (stereo not drawn), the cell number change worked out at 19.4%. For the same compound, the AC50 under setting [1] was 29.1 µM [rising, single point].
As for `O=C(/C=C/c1ccccc1)Nc1ccc(N2CCCCC2)cc1`, the cell number change was 60.4%. The AC50 under setting [2] is 20.6 µM [rising, single point].
On to `COc1ccc(CNc2ncnc3c2[nH]c2ccccc23)cc1`, for which the cell number change was -50.7%. For the same compound, the AC50 under setting [2] is 16.4 µM [falling, single point]. Also, the AC50 under setting [1] is 18.4 µM [falling, partial curve].
For `CC(=O)Nc1ccc(S(=O)(=O)Nc2cc(C)ccn2)cc1`, the cell number change is -25%. Besides, the AC50 under setting [2] is 0.116 µM [falling, full curve]. The AC50 under setting [1] is 0.082 µM [falling, full curve].
As for `O=C1CC(c2ccccc2)Cc2nc(NC3CC3)ncc21` (stereo not drawn), the cell number change is -32.1%. Also, the AC50 under setting [2] was 18.4 µM [falling, partial curve]. Under setting [1], the AC50 is 32.6 µM [falling, partial curve].
For `Cc1cccc(C(=O)OCC(=O)Nc2ccccc2C(=O)NC2CC2)c1`, the cell number change amounted to 11.2%.
For the compound `Cc1ccc(/C(O)=C/C(=O)C(=O)NNC(=O)C(O)(c2ccccc2)c2ccccc2)cc1`, the cell number change was -41.3%. In addition, under setting [2], the AC50 was 25.9 µM [falling, single point].
On to `COc1nc(N)nc2nc[nH]c12`, for which the cell number change amounted to 1.26%.
With `Cc1ccc(OC(C)C(=O)N2CC(=O)Nc3ccccc32)cc1` (stereo not drawn), the cell number change was -3.95%. Further, under setting [2], the AC50 was 0.82 µM [rising, full curve, poor fit].
Regarding `Cc1nnc(C)c2c(C)n(N)c(C)c12`, the cell number change was 17.5%. Also, under setting [2], the AC50 was 0.164 µM [falling, full curve, poor fit].
As to `CCc1nc2oc3ccccc3c(=O)c2c(=O)n1Cc1ccc(OC)cc1`, the cell number change came to 7.5%. Also, the AC50 under setting [2] was 0.00517 µM [falling, full curve, poor fit]. In addition, under setting [1], the AC50 was 29.1 µM [falling, single point].
On to `COc1ccc(C2(C)NC(=O)N(CC(=O)c3cc(C)n(C4CC4)c3C)C2=O)cc1` (stereo not drawn), for which the cell number change is -1.04%. The AC50 under setting [1] is 2.91 µM [rising, partial curve, poor fit].
For `O=C(Nc1ccc(N2CCCCC2)cc1)c1cccnc1`, the cell number change stood at 17.9%.
As for `Fc1ccc(Oc2nc(-c3ccccn3)nc3ccccc23)cc1`, the cell number change was -20.2%. Also, the AC50 under setting [2] is 0.731 µM [falling, full curve].
For the compound `Cc1nc2ccc(NC(=O)CCS(=O)(=O)c3ccccc3)cc2s1`, the cell number change was -38.4%. Under setting [2], the AC50 is 0.92 µM [falling, full curve, poor fit]. Further, the AC50 under setting [1] is 0.291 µM [falling, full curve].
With `O=C(O)C1CCCCN1S(=O)(=O)c1ccc2ccccc2c1` (stereo not drawn), the cell number change is -5.51%. Besides, under setting [2], the AC50 was 1.64 µM [falling, partial curve]. In addition, the AC50 under setting [1] is 0.58 µM [falling, single point].
As to `O=C(COC(=O)c1cc(Br)ccc1O)NNC(=O)c1ccc(Cl)cc1`, the cell number change came out at 0.314%. Further, the AC50 under setting [2] is 0.92 µM [falling, partial curve]. In addition, the AC50 under setting [1] was 1.3 µM [falling, partial curve].
Consider `CC(C)[C@H](NC(=O)C1CCCC1)c1nc2ccccc2[nH]1`, for which the cell number change turned out to be 63.5%. In addition, the AC50 under setting [2] was 29.1 µM [rising, single point]. Also, the AC50 under setting [1] was 4.11 µM [rising, single point].
Take `Cc1cc(NS(=O)(=O)c2ccc(NC(=S)NC(=O)c3cccc(S(=O)(=O)N(C)C)c3)cc2)no1`: the cell number change is -1.76%.
